From publication doi:10.1101/2025.11.23.689998

Amino acid sequences for entries named in this document (tags omitted).
UniProt P14713: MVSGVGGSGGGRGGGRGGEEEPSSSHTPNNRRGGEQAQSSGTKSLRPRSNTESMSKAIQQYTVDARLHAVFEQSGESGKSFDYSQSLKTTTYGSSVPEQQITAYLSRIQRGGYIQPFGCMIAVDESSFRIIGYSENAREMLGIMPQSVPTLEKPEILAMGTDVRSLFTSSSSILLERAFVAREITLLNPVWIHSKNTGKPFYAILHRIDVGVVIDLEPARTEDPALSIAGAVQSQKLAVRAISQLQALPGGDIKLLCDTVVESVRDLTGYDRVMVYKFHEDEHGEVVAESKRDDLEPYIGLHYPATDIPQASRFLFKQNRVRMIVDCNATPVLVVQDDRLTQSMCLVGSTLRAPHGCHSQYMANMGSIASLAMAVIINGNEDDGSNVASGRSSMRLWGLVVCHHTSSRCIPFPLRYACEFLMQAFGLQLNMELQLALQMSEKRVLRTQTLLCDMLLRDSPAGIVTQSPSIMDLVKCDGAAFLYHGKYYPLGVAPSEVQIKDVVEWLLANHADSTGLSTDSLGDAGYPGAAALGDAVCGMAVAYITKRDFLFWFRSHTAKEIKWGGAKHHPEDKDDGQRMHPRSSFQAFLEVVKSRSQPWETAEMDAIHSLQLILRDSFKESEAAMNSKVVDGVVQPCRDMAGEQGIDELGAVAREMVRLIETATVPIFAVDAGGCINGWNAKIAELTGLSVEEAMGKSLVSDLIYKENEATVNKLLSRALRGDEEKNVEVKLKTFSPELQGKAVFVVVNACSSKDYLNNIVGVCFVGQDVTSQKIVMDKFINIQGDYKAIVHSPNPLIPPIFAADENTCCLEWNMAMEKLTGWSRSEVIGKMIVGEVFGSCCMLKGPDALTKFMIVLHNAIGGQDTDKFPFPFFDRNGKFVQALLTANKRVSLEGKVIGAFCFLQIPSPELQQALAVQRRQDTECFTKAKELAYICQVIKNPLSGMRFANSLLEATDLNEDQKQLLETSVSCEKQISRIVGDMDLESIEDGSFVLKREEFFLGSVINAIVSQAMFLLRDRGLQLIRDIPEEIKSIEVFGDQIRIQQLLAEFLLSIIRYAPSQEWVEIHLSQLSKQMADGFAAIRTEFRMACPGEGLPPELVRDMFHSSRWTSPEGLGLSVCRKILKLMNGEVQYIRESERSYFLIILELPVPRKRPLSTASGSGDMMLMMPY

B1: LRR-like receptor At5g43470 (receptor, UniProt Q8W4J9 1-908)
chain: MAEAFVSFGLEKLWDLLSRESERLQGIDGQLDGLKRQLRSLQSLLKDADAKKHGSDRVRNFLEDVKDLVFDAEDIIESYVLNKLSGKGKGVKKHVRRLACFLTDRHKVASDIEGITKRISEVIGEMQSFGIQQIIDGGRSLSLQERQRVQREIRQTYPDSSESDLVGVEQSVKELVGHLVENDVHQVVSIAGMGGIGKTTLARQVFHHDLVRRHFDGFAWVCVSQQFTQKHVWQRILQELQPHDGDILQMDEYALQRKLFQLLEAGRYLVVLDDVWKKEDWDVIKAVFPRKRGWKMLLTSRNEGVGIHADPTCLTFRASILNPEESWKLCERIVFPRRDETEVRLDEEMEAMGKEMVTHCGGLPLAVKALGGLLANKHTVPEWKRVFDNIGSQIVGGSWLDDNSLNSVYRILSLSYEDLPTHLKHCFLNLAHFPEDSEISTYSLFYYWAAEGIYDGSTIEDSGEYYLEELVRRNLVIADDNYLSWQSKYCQMHDMMREVCLSKAKEENFLQIIIDPTCTSTINAQSPSRSRRLSIHSGKAFHILGHKNKTKVRSLIVPRFEEDYWIRSASVFHNLTLLRVLDLSWVKFEGGKLPCSIGGLIHLRYLSLYEAKVSHLPSTMRNLKLLLYLNLRVDTEEPIHVPNVLKEMIQLRYLSLPLKMDDKTKLELGDLVNLEYLYGFSTQHSSVTDLLRMTKLRYLAVSLSERCNFETLSSSLRELRNLETLNFLFSLETYMVDYMGEFVLDHFIHLKQLGLAVRMSKIPDQHQFPPHLVHLFLIYCGMEEDPMPILEKLLHLKSVRLARKAFLGSRMVCSKGGFPQLCVIEISKESELEEWIVEEGSMPCLRTLTIDDCKKLKELPDGLKYITSLKELKIEGMKREWKEKLVPGGEDYYKVQHIPDVQFINCDQ
B2: LRR-like receptor At5g45510 (receptor, UniProt Q8VZC7 1-1222)
chain: MSDPLKMAAETEEIKPVPAAMGEKKDVVLCKKIVETLGGGGDQRVLLVGEAGIGKTRMAQMVDKEASKDVLCYQTLWLHLNRKFKVNDNYIKEKKFEDEWSLYENIASQLSLYSDFEETEVGERDEDEEEEKKVEDLLKDLKPKIEKYLLEKKEAVVKKLEDDKKKKEKEAAEKLEAEKKLVDPAAKKAKDHGNKNPTDAAKEKTTQVVAGGEDKAQTSSERKPYLLLILDDEGMTSEYEVMVHLGLEDFLKDHTPRKILITRRQETEEATKSGEHAEGEANDSQSGEKKEDTDGEDEIRSADKEEPESQARVKTEEKHEKVVPPTIDDLWGSTNTYGEITFQTTNESQDLLESFNLKEAEALFTSSMFFKDMPNFFFDPVPGTDEKLLNHMLKKSKSLPAAINVLAKSLEYTVKSKSYKLNKDEEERLLKEKIEMVLSAERGNPSDQESSSESPKKASGENPILLLAYKLFKTDGPLKDTILDCFWHSLDFFEHCGCVYYRDLITQWILEGYFDPVRSVEKAYQDGHSIFMELIDRGMLKIQENNVVVPEMAMRNVIDPRRGGHLGKSRLGFSRVYGGNKRKGIGKITQLDDMIKTVQAKKGDKITTILVSGDRLRRVTPKKFFKNLKELEVLGLFEPTVKPFVPSFSDQLKLLRVLIIRDCDLLKSIEELKALTKLNTLEVSGASSLSKISEKFFESFPELRSLHLSGLKIESSPPSISGLKELHCLIIKDCPLLQDLPNIQELVNLEVVDVSGASGLRTCFDNADGAKKNKSKNKNFYLLTKLQHLDFSGSQIERLPIFQDSAVAAKLHSLTRLLLRNCSKLRRLPSLKPLSGLQILDLSGTTSLVEMLEVCFEDKLELKTLNLSGTNLSELATTIEDLSSLNELLLRDCINLDAIPNIEKLENLEVIDVSGSAKLAKIEGSFEKMFYLRVVDLSGTQVETPELPADTKIHCLKRFTRADGKCFERDTWREIKEDIERDRSENASSSDAVVISQEITEKKPVEIREVESNAPRASDCTEKVDVNKERLLKVPIDRALYQKALTSLVDSKIPQEEVLEINETNKLDEEALASAEFVSFVDCTPERVKSIFEKAKLVKGCWLRMCFDIKDPFDGVDEENLKSLETLSITNLLSLETISFIAKLENLKNLSLDCCPKIKTIFPEMPASLPVLNLKHCENLEKVVVGVEVSTHTNLDLKVENCPKFGDYVMVDHSDVPPPHEC
B3: LRR-like receptor At5g48620 (receptor, UniProt Q9FJK8 1-908)
chain: MAEGFVSFGLEKLWDLLSRESERLQGIDEQLDGLKRQLRSLQSLLKDADAKKHGSDRVRNFLEDVKDLVFDAEDIIESYVLNKLRGEGKGVKKHVRRLARFLTDRHKVASDIEGITKRISDVIGEMQSFGIQQIIDGVRSLSLQERQRVQREIRQTYPDSSESDLVGVEQSVEELVGHLVENDIYQVVSIAGMGGIGKTTLARQVFHHDLVRRHFDGFAWVCVSQQFTLKHVWQRILQELQPHDGNILQMDESALQPKLFQLLETGRYLLVLDDVWKKEDWDRIKAVFPRKRGWKMLLTSRNEGVGIHADPTCLTFRASILNPEESWKLCERIVFPRRDETEVRLDEEMEAMGKEMVTHCGGLPLAVKALGGLLANKHTVPEWKRVSDNIGSQIVGGSCLDDNSLNSVNRILSLSYEDLPTHLKHRFLYLAHFPEDSKIYTQDLFNYWAAEGIYDGSTIQDSGEYYLEELVRRNLVIADNRYLSLEFNFCQMHDMMREVCLSKAKEENFLQIIKDPTSTSTINAQSPSRSRRFSIHSGKAFHILGHRNNPKVRSLIVSRFEEDFWIRSASVFHNLTLLRVLDLSRVKFEGGKLPSSIGGLIHLRYLSLYGAVVSHLPSTMRNLKLLLFLNLRVDNKEPIHVPNVLKEMLELRYLSLPQEMDDKTKLELGDLVNLEYLWYFSTQHSSVTDLLRMTKLRNLGVSLSERCNFETLSSSLRELRNLEMLNVLFSPEIVMVDHMGEFVLDHFIHLKQLGLAVRMSKIPDQHQFPPHLAHIHLVHCVMKEDPMPILEKLLHLKSVALSYGAFIGRRVVCSKGGFPQLCALGISGESELEEWIVEEGSMPCLRTLTIHDCEKLKELPDGLKYITSLKELKIREMKREWKEKLVPGGEDYYKVQHIPDVQFINCDL
B4: LRR-like receptor At5g66900 (receptor, UniProt Q9FKZ1 1-809)
chain: MNDWASLGIGSIGEAVFSKLLKVVIDEAKKFKAFKPLSKDLVSTMEILFPLTQKIDSMQKELDFGVKELKELRDTIERADVAVRKFPRVKWYEKSKYTRKIERINKDMLKFCQIDLQLLQHRNQLTLLGLTGNLVNSVDGLSKRMDLLSVPAPVFRDLCSVPKLDKVIVGLDWPLGELKKRLLDDSVVTLVVSAPPGCGKTTLVSRLCDDPDIKGKFKHIFFNVVSNTPNFRVIVQNLLQHNGYNALTFENDSQAEVGLRKLLEELKENGPILLVLDDVWRGADSFLQKFQIKLPNYKILVTSRFDFPSFDSNYRLKPLEDDDARALLIHWASRPCNTSPDEYEDLLQKILKRCNGFPIVIEVVGVSLKGRSLNTWKGQVESWSEGEKILGKPYPTVLECLQPSFDALDPNLKECFLDMGSFLEDQKIRASVIIDMWVELYGKGSSILYMYLEDLASQNLLKLVPLGTNEHEDGFYNDFLVTQHDILRELAICQSEFKENLERKRLNLEILENTFPDWCLNTINASLLSISTDDLFSSKWLEMDCPNVEALVLNLSSSDYALPSFISGMKKLKVLTITNHGFYPARLSNFSCLSSLPNLKRIRLEKVSITLLDIPQLQLSSLKKLSLVMCSFGEVFYDTEDIVVSNALSKLQEIDIDYCYDLDELPYWISEIVSLKTLSITNCNKLSQLPEAIGNLSRLEVLRLCSSMNLSELPEATEGLSNLRFLDISHCLGLRKLPQEIGKLQNLKKISMRKCSGCELPESVTNLENLEVKCDEETGLLWERLKPKMRNLRVQEEEIEHNLNLLQMF
B5: CRK17 (receptor, UniProt Q8L710 27-686)
chain: QQTCDNTAGSFKPNSTYDNNRRLLLSTFASNVTAQNGYFNGSFGLGTDRVYAMGMCAPGAEPDVCSNCIKNTAEGLLQICLNQTDGFSWSGEETLCLVRYSNKSFSGLLGLEPSNDFFNVNEIRKEDQKEFDSVFDELMFRTIQGASSSVRNNSNSLSLSGKYYAKDVAPEPVYGNISVVMQCTPDVSSKDCNLCLERSLDFYKKWYNGKRGTIILRPSCFFRWELYTFFGAFDSINARHPPPPPRPLSPPPLKTPSVTNQTNITKKNDSRISGGTIAAIVVVVVVTIILIVVGLVICKRRKQKQEIELPIVLNEAESVQFDLKTIEAATGNFSEHNKLGAGGFGEVYKGMLLNGTEIAVKRLSKTSGQGEIEFKNEVVVVAKLQHINLVRLLGFSLQGEEKLLVYEFVPNKSLDYFLFDPNKRNQLDWTVRRNIIGGITRGILYLHQDSRLKIIHRDLKASNILLDADMNPKIADFGMARIFGVDQTVANTARVVGTFGYMSPEYVTHGQFSMKSDVYSFGVLILEIISGKKNSSFYQMDGLVNNLVTYVWKLWENKTMHELIDPFIKEDCKSDEVIRYVHIGLLCVQENPADRPTMSTIHQVLTTSSITLPVPQPPGFFFRNGPGSNPSSQGMVPGQSSSKSFTSSVDEATITQVNPR

Each binder was assayed against phyB-miniTurbo (phyB CDS - miniTurbo-sCFP3A-3FLAG) (Arabidopsis thaliana) (UniProt P14713) (assay: proximity labelling).

B1 was tested. Which binding did it give?
The binding was “binds”.

B2 was tested. Which binding did it give?
Its binding is “binds”.

For B3, which binding is on record?
The binding was “binds”.

How did the binding turn out when B4 was run?
Its binding is “binds”.

B5 was tested. Which binding did it give?
The binding was “binds”.

Results are given in words; binding and its absence hold for the method and conditions named. Binding seen in cells or lysates may run through a third protein. These calls come from enrichment with a bait or labelling near it, and not all partners need be listed.
